Experiment [1] has as its target T1, DHHC-12-HA (HA-tagged murine DHHC-12), in neurons (mouse) (UniProt Q8VC90).
T1 sequence: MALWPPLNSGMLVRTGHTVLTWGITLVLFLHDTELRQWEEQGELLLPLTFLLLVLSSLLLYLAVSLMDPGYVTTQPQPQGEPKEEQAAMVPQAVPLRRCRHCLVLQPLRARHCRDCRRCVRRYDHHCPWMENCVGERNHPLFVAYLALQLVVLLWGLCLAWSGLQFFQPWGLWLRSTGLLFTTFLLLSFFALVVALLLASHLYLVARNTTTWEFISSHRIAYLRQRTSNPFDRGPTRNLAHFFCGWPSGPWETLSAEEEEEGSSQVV
The experiment is described as follows: proximity ligation; in situ PLA (Duolink II) in primary hippocampal neurons 24 h after cotransfection of DHHC-12-HA and gephyrin-GFP.

Sequences of proteins named here, by UniProt entry; tags and fusion partners are left off.
UniProt Q9ESG8: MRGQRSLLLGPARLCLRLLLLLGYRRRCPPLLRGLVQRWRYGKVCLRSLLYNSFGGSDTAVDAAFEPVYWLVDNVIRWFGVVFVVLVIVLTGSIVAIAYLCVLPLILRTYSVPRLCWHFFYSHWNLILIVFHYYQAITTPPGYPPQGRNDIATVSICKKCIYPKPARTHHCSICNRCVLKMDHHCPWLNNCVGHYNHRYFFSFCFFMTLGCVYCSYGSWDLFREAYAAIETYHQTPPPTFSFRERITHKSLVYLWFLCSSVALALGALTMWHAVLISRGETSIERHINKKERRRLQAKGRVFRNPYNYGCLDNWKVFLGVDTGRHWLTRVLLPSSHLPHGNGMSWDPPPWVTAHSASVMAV

Experiment [2] deals with HA-DHHC-16 (murine) (mouse) (UniProt Q9ESG8). The experiment is described as follows: co-IP; HEK293 lysates co-expressing gephyrin-myc and HA-tagged DHHC enzymes; protein-A/G Sepharose preloaded with HA-tag antibodies, 2 h at room temperature; IP buffer 50 mM Tris pH 7.4, 25 mM NaCl, 1% Triton X-100.
Experiment [3] concerns the target T2, HA-DHHC-22 (murine) (mouse) (UniProt Q9CWU2).
T2 sequence: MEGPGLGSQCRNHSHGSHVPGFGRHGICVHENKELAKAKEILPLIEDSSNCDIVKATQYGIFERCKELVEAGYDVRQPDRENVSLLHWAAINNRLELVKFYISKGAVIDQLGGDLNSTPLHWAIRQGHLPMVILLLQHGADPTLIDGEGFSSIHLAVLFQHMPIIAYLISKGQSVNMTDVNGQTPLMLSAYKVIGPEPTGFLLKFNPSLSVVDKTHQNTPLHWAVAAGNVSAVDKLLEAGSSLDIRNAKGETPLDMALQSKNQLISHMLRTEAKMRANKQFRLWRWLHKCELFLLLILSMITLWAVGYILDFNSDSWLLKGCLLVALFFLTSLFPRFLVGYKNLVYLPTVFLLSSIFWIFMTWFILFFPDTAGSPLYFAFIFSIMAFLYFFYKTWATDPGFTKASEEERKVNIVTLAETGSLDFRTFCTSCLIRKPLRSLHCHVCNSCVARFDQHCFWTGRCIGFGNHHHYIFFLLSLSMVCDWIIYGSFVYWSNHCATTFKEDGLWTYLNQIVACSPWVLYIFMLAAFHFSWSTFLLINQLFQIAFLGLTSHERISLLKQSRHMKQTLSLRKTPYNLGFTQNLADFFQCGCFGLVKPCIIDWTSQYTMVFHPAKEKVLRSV
The description is as above.

For experiment [4], the target named is T3, HA-tagged DHHC12 (murine), in HEK293 (mouse) (UniProt Q8VC90).
T3 sequence: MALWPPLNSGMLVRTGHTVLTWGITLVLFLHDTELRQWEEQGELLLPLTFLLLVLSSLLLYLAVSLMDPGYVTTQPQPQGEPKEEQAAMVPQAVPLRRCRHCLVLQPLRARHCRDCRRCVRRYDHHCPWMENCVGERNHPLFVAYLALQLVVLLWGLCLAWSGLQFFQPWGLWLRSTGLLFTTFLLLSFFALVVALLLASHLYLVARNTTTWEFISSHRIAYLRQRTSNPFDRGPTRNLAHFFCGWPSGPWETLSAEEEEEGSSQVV
Described as above.

These are yes or no findings as the source states them, for the method shown. In cells and extracts the contact can be indirect. Some results given as binding are weak or reduced against the parent protein; the word gives no strength. Sequences can lack the tags named with a protein.

Two molecules from publication PMC4099074, “Palmitoylation of Gephyrin Controls Receptor Clustering and Plasticity of GABAergic Synapses” (PLoS Biology, 2014) can be followed below.

B1: gephyrin-GFP (EGFP-tagged gephyrin, wild type) (protein, UniProt Q03555 1-768)
chain: MATEGMILTNHDHQIRVGVLTVSDSCFRNLAEDRSGINLKDLVQDPSLLGGTISAYKIVPDEIEEIKETLIDWCDEKELNLILTTGGTGFAPRDVTPEKFPTFPFCGLQKGATKEVIEREAPGMALAMLMGSLNVTPLGMLSRPVCGIRGKTLIINLPGSKKGSQECFQFILPALPHAIDLLRDAIVKVKEVHDELEDLPSPPPPLSPPPTTSPHKQTEDKGVQCEEEEEEKKDSGVASTEDSSSSHITAAALAAKIPDSIISRGVQVLPRDTASLSTTPSESPRAQATSRLSTASCPTPKQIRRPDESKGVASRVGSLKVQSRCSSKENILRASHSAVDITKVARRHRMSPFPLTSMDKAFITVLEMTPVLGTEIINYRDGMGRVLAQDVYAKDNLPPFPASVKDGYAVRAADGPGDRFIIGESQAGEQPTQTVMPGQVMRVTTGAPIPCGADAVVQVEDTELIRESDDGTEELEVRILVQARPGQDIRPIGHDIKRGECVLAKGTHMGPSEIGLLATVGVTEVEVNKFPVVAVMSTGNELLNPEDDLLPGKIRDSNRSTLLATIQEHGYPTINLGIVGDNPDDLLNALNEGISRADVIITSGGVSMGEKDYLKQVLDIDLHAQIHFGRVFMKPGLPTTFATLDIDGVRKIIFALPGNPVSAVVTCNLFVVPALRKMQGILDPRPTIIKARLSCDVKLDPRPEYHRCILTWHHQEPLPWAQSTGNQMSSRLMSMRSANGLLMLPPKTEQYVELHKGEVVDVMVIGRL
Take B1: the binding entry in experiment [1] was “binds”.

B2: gephyrin-myc (Myc-tagged gephyrin) (protein, UniProt Q03555 1-768)
chain: MATEGMILTNHDHQIRVGVLTVSDSCFRNLAEDRSGINLKDLVQDPSLLGGTISAYKIVPDEIEEIKETLIDWCDEKELNLILTTGGTGFAPRDVTPEKFPTFPFCGLQKGATKEVIEREAPGMALAMLMGSLNVTPLGMLSRPVCGIRGKTLIINLPGSKKGSQECFQFILPALPHAIDLLRDAIVKVKEVHDELEDLPSPPPPLSPPPTTSPHKQTEDKGVQCEEEEEEKKDSGVASTEDSSSSHITAAALAAKIPDSIISRGVQVLPRDTASLSTTPSESPRAQATSRLSTASCPTPKQIRRPDESKGVASRVGSLKVQSRCSSKENILRASHSAVDITKVARRHRMSPFPLTSMDKAFITVLEMTPVLGTEIINYRDGMGRVLAQDVYAKDNLPPFPASVKDGYAVRAADGPGDRFIIGESQAGEQPTQTVMPGQVMRVTTGAPIPCGADAVVQVEDTELIRESDDGTEELEVRILVQARPGQDIRPIGHDIKRGECVLAKGTHMGPSEIGLLATVGVTEVEVNKFPVVAVMSTGNELLNPEDDLLPGKIRDSNRSTLLATIQEHGYPTINLGIVGDNPDDLLNALNEGISRADVIITSGGVSMGEKDYLKQVLDIDLHAQIHFGRVFMKPGLPTTFATLDIDGVRKIIFALPGNPVSAVVTCNLFVVPALRKMQGILDPRPTIIKARLSCDVKLDPRPEYHRCILTWHHQEPLPWAQSTGNQMSSRLMSMRSANGLLMLPPKTEQYVELHKGEVVDVMVIGRL
Consider B2, for which the values for the binding entry in experiment [2], in experiment [3] and in experiment [4] were “no binding”, “no binding” and “binds”, respectively.
